Assay [1] concerns the target His-tagged human Dpy-30 protein (full length) (human) (UniProt Q9C005). The assay can be described thus: Ni-NTA pulldown of co-expressed proteins, Coomassie gel.
Assay [2] concerns the target His-RIα D/D (bovine RIα a.a.#1-81) (bovine) (UniProt P00514). Nature of the assay: Ni-NTA pulldown (discussion of Example 2).
The target of assay [3] is His-RIIα D/D (mouse RIIα a.a.#1-64) (mouse) (UniProt P12367). Nature of the assay: Ni-NTA pulldown (discussion of Example 2).
Assay [4] addresses His-RIα D/D (bovine RIα a.a.#1-81) (bovine) (UniProt P00514). The assay can be described thus: Ni-NTA pulldown of co-expressed proteins, Coomassie gel.
Assay [5] deals with His-RIIα D/D (mouse RIIα a.a.#1-64) (mouse) (UniProt P12367). The description is as above.
Assay [6] addresses His-tagged human Dpy-30 protein (full length) (human) (UniProt Q9C005). The assay can be described thus: Ni-NTA pulldown (discussion of Example 1).

The chains behind the UniProt entries cited, without tags or fusion partners. Residues count along the entry.
UniProt Q9C005: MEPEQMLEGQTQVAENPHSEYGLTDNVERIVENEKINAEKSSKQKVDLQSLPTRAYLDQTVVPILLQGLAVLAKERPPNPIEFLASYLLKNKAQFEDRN
UniProt P00514, residues 1-81: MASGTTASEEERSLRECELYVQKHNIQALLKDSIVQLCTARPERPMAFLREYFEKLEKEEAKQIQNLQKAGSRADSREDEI
UniProt P12367, residues 1-64: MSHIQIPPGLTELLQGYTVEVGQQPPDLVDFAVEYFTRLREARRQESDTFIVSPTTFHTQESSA

Results are given in words; binding and its absence hold for the method and conditions named. In cells and extracts the contact can be indirect. Some entries that bind do so weakly or less than the wild type. Tags and fused reporters may be left off the sequences shown.

For PVMREVETAFMPWLKEQAIGYLARGVVARRVVDKLVEDAAAALAANRS (peptide, not shown: a dimerising Fc or GST) [GST-tagged RSP3 269-316], the binding result in assay [1] is on record as “binds”.

B1: GST-tagged RSP3 96-180 (contains the RIIa-binding amphipathic helix AHR at a.a. 161-178) (protein, not shown: a dimerising Fc or GST)
chain: HIDIQTDVYLEELTDTVPEADTSTQTDAFLDRPPTPLFVPQKTGTDAITQIENGDLFDFDFEVEPILEVLVGKVLEQGLMEVLEE
With B1, the binding result in assay [2], in assay [3], in assay [1], in assay [4], in assay [5] and in assay [6] was “binds” each time.

B2: GST-tagged RSP3 245-316 (protein, not shown: a dimerising Fc or GST)
chain: ARGYLSGIVNTVFDRLVSSGYIYDPVMREVETAFMPWLKEQAIGYLARGVVARRVVDKLVEDAAAALAANRS
For the molecule B2, the binding entry in assay [1] is “binds”.

The record behind these values is patent US20130217613A1.
